Source: the supplement of paper PMC7666118
The other results are listed elsewhere or left out.

By UniProt entry, the sequences of proteins in these tests, tags left out. Where a name states a change or a piece, a line headed by the entry shows the natural chain unless it says otherwise.
UniProt Q8WUY8: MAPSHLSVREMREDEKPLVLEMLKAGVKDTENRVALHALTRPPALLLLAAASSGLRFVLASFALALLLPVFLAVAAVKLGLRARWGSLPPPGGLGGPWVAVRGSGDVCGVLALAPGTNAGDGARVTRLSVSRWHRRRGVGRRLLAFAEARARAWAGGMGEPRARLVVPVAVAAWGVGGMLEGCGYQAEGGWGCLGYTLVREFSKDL
UniProt P60660, whole entry: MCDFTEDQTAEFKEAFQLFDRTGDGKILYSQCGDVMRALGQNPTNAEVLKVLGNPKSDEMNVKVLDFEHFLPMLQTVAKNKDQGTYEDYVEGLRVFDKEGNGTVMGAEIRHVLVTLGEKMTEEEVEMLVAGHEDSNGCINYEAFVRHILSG
UniProt P16083: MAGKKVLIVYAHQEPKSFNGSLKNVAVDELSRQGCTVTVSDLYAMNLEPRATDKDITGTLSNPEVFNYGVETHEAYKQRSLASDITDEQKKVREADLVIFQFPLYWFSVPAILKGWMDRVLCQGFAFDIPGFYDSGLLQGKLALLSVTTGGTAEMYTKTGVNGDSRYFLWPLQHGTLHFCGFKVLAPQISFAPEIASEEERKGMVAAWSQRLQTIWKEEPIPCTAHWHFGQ
UniProt Q7RTR2: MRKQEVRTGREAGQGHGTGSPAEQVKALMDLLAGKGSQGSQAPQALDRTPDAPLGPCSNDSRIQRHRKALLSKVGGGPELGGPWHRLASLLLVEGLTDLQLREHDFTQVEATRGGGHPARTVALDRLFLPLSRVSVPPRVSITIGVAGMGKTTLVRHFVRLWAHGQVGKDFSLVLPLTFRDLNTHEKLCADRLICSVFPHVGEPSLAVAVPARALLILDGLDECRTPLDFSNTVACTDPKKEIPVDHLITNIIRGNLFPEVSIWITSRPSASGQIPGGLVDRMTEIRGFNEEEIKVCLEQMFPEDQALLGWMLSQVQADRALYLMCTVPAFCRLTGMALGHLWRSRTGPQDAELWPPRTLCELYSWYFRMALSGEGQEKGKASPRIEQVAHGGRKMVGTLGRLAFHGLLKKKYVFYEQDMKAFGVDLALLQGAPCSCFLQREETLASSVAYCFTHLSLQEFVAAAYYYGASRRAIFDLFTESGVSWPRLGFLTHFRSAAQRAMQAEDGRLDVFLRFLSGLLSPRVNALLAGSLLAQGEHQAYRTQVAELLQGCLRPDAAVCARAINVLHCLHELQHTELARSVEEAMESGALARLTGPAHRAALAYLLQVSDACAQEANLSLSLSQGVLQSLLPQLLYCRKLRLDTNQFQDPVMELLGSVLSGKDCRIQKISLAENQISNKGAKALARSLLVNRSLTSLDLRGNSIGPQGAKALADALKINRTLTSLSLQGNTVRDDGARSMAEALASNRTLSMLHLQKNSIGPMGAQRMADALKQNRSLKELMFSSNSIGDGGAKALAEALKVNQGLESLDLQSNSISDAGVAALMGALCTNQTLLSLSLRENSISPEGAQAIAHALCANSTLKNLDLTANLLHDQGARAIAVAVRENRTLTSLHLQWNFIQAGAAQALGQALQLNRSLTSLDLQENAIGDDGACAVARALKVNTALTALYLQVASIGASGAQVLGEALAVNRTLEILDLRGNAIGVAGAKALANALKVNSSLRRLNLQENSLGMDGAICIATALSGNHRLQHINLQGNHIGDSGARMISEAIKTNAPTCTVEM
UniProt Q9P2K5: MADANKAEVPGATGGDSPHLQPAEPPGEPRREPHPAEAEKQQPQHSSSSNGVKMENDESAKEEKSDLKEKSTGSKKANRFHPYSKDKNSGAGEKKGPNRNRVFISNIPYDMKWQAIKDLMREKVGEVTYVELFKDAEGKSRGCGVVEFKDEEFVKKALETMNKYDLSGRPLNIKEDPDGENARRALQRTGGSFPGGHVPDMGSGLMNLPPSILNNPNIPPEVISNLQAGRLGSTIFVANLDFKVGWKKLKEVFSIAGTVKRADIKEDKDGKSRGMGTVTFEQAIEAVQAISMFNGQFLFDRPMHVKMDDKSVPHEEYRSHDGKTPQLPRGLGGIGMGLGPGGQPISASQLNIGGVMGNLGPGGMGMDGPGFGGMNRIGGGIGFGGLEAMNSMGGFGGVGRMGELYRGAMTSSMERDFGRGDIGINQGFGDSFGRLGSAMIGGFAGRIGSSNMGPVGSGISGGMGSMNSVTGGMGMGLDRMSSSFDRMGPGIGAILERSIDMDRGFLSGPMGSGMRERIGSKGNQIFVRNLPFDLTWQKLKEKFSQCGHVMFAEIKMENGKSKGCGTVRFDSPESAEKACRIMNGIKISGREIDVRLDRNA
UniProt Q6ZNB6: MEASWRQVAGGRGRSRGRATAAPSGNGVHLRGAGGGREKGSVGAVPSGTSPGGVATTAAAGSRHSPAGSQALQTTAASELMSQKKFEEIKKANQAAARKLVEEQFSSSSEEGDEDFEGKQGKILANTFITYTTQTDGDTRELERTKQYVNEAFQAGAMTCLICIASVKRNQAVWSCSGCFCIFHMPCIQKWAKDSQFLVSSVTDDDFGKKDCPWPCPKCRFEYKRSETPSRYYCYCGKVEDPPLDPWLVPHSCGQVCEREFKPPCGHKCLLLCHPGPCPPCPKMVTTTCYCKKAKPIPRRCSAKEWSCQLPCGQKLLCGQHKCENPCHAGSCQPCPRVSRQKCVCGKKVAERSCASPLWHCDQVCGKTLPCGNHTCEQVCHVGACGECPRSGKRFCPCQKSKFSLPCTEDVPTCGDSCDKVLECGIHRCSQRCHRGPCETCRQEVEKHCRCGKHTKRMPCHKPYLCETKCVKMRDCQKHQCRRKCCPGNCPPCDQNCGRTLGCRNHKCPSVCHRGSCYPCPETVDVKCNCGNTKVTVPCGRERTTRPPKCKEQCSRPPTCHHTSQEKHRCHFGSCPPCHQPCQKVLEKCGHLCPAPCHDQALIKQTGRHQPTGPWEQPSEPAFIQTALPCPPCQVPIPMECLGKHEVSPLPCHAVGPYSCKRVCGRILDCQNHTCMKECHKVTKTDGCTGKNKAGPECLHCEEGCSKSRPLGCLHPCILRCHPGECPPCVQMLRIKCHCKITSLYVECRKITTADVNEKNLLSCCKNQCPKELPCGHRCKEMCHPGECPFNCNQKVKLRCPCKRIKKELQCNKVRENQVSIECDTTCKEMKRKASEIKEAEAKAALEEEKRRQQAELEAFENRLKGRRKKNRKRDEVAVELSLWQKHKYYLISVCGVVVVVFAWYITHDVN
UniProt Q13772: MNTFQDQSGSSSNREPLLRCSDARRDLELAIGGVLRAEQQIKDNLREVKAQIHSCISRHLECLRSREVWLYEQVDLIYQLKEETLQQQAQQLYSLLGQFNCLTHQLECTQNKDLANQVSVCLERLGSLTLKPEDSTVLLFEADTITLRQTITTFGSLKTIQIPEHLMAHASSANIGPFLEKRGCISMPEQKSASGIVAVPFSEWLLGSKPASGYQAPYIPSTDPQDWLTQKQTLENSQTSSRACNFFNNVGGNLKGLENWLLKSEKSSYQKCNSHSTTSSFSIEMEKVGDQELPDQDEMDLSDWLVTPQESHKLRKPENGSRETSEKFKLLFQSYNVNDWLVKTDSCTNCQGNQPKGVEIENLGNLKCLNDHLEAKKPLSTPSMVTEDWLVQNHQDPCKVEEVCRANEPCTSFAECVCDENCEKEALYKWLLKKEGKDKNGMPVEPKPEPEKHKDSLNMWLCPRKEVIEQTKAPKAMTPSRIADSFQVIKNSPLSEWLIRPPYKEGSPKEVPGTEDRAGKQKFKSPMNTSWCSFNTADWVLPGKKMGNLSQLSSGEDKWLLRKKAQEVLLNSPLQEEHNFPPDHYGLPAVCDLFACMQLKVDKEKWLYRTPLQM
UniProt P19838: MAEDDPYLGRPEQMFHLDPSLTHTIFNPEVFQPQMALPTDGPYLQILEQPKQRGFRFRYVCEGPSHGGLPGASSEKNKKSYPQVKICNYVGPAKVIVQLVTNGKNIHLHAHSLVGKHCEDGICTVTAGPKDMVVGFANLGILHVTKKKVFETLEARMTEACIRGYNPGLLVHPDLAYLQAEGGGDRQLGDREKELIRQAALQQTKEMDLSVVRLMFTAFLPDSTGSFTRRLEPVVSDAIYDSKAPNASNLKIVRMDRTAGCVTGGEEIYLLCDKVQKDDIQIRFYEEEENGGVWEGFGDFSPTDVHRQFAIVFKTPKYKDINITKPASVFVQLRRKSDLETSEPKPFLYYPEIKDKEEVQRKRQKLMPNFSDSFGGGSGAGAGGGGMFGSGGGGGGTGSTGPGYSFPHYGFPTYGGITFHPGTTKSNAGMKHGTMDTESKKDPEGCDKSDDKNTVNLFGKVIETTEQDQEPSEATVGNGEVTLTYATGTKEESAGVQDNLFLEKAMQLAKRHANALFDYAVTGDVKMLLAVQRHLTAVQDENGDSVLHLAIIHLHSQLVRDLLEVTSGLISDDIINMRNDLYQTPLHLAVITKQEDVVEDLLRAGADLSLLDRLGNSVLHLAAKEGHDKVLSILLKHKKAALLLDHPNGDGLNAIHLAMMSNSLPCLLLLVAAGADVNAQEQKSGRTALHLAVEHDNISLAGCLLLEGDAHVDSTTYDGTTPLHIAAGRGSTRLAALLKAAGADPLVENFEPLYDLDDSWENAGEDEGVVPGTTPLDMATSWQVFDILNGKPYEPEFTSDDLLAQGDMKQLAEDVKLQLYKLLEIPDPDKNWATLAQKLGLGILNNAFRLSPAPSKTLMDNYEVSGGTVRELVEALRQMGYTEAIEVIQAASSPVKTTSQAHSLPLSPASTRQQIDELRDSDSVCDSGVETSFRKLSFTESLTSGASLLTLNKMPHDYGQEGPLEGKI
UniProt O95182, whole entry: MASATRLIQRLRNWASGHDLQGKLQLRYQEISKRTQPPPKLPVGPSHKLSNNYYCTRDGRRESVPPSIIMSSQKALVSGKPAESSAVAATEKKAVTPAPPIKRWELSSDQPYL
UniProt Q92597: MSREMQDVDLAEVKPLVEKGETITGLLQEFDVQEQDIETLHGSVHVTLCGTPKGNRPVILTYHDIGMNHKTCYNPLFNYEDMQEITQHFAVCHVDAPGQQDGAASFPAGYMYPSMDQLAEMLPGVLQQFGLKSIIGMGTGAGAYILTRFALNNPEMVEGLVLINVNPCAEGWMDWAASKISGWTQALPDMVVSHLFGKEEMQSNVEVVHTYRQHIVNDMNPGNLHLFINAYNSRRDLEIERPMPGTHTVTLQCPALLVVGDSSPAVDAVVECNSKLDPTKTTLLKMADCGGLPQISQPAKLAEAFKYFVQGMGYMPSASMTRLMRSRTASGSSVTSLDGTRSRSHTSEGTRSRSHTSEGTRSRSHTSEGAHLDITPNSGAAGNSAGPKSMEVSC
UniProt P03891, whole entry: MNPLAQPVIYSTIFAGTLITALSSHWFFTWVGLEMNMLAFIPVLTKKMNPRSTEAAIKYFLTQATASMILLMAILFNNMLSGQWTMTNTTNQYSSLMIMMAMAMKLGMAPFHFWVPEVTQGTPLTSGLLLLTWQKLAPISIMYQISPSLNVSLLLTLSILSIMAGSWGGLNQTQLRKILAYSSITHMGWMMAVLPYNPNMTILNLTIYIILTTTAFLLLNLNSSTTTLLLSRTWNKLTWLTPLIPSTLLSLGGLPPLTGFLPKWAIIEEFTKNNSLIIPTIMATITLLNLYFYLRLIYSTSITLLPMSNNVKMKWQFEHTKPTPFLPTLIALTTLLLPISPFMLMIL
UniProt Q9NZJ7, whole entry: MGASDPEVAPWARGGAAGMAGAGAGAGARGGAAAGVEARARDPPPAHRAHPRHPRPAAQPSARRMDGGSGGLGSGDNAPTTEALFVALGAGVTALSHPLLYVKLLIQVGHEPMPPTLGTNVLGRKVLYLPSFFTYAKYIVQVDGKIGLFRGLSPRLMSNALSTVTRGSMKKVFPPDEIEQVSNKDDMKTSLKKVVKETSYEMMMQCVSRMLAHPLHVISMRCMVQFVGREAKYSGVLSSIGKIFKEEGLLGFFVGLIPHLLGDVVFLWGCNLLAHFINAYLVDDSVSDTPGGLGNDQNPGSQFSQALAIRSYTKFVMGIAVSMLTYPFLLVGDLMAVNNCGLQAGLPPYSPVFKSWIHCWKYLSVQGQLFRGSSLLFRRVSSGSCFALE
UniProt P02795: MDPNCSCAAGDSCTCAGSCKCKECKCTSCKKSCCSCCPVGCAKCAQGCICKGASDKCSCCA
UniProt Q96I59: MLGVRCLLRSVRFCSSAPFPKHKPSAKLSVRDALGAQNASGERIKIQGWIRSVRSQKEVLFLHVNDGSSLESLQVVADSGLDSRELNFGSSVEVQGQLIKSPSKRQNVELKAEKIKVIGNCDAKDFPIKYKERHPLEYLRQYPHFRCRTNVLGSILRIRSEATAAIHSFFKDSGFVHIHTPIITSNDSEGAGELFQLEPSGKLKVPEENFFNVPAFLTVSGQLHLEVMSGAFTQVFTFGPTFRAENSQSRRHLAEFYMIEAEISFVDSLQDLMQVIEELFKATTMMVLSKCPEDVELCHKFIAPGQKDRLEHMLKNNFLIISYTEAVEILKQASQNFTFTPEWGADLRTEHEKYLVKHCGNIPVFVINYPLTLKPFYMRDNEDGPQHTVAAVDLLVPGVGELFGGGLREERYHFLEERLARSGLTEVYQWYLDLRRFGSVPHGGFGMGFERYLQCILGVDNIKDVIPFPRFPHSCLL

These targets were tested with COc1ccc(Cn2ccc3ccc(C(=O)NO)cc32)cc1 (assay: dose-dependent thermal stabilisation call (2D-TPP, DLPTP, 10% FDR) (binary (1 = stabilised)); higher = stabilised by the compound). Conditions: system: HL-60 intact cells; concentration range 0.04-10 µM.

Target	dose-dependent thermal stabilisation call
NOL5A (UniProt O00567)	inactive: 0
MYO9B (UniProt Q13459)	inactive: 0
NAT14 (UniProt Q8WUY8)	inactive: 0
MYL6 (UniProt P60660)	inactive: 0
NDST2 (UniProt P52849)	inactive: 0
NKTR (UniProt P30414)	inactive: 0
NQO2 (UniProt P16083)	active: 1
NOP5/NOP58	inactive: 0
NCOA7 (UniProt Q8NI08)	inactive: 0
NFKBIE (UniProt O00221)	inactive: 0
NIP30 (UniProt Q9GZU8)	inactive: 0
MTCP1 (UniProt P56278)	inactive: 0
NLRC3 (UniProt Q7RTR2)	inactive: 0
MYEF2 (UniProt Q9P2K5)	inactive: 0
NFXL1 (UniProt Q6ZNB6)	inactive: 0
NCOA4 (UniProt Q13772)	inactive: 0
NOTCH2 (UniProt Q04721)	inactive: 0
MYH10 (UniProt P35580)	inactive: 0
NMI (UniProt Q13287)	inactive: 0

Target	dose-dependent thermal stabilisation call
NCOA6 (UniProt Q14686)	inactive: 0
NAF1 (UniProt Q96HR8)	inactive: 0
NFU1 (UniProt Q9UMS0)	inactive: 0
MRPS6 (UniProt P82932)	inactive: 0
NME7 (UniProt Q9Y5B8)	inactive: 0
NARS (UniProt O43776)	inactive: 0
NCOR1 (UniProt O75376)	inactive: 0
NFKB1 (UniProt P19838)	inactive: 0
NDUFA7 (UniProt O95182)	inactive: 0
NDRG1 (UniProt Q92597)	inactive: 0
NCLN (UniProt Q969V3)	inactive: 0
ND2 (UniProt P03891)	inactive: 0
MTCH1 (UniProt Q9NZJ7)	inactive: 0
NAB2 (UniProt Q15742)	inactive: 0
MT2A (UniProt P02795)	inactive: 0
NARS2 (UniProt Q96I59)	inactive: 0
NDUFS8 (UniProt O00217)	inactive: 0
NCL (UniProt P19338)	inactive: 0

Quoted at random: three records from the list.
Target	dose-dependent thermal stabilisation call
NQO2 (UniProt P16083)	active: 1
NARS2 (UniProt Q96I59)	inactive: 0
MTCP1 (UniProt P56278)	inactive: 0
